Results reported in patent US20020103111A1 (Millennium Pharmaceuticals, Inc., priority 1996, published 2002).
Square brackets hold non-standard residues; d marks the D form. Ends that are not written are not given here. NMeL = CN[C@@H](CC(C)C)C(=O)O

Assay: general procedure: Fmoc solid-phase peptide synthesis; Rink Amide AM resin (Fmoc-Am-PS, 0.5 mmol/g); HBTU/NMM or PYBOP/NMM, double coupling
Conditions: whole synthesis, scale of the general procedure 50 mg or 100 mg resin (0.5 mmol/g)

Substance	crude HPLC purity
2-Anc-Leu-Asp-Thr-Ser-Leu	63%
Ac-Arg-Gly-Leu-Asp-Thr	45%
Ac-Cys*-Gly-Leu-Asp-Thr-Ser-Leu-Gly-Cys*	80%
Ac-Cys*-Leu-Asp-Thr-Ser-Leu-Cys*	67%
Ac-GLDTSL	67%
Ac-Gly-Leu-Asp-Thr-Ser	73%
Ac-Leu-Asp-Ala-Ser-Leu	78%
Ac-Leu-Asp-HyP-Ser-Leu	79%
Ac-Leu-Asp-Ser-Ser-Leu	86%
Ac-Leu-Asp-Thr-Ser-Phe	80%
Ac-Leu-Asp-Thr-Thr-Leu	71%
Ac-Leu-Asp-Val-Ser-Leu	93%
Ac-Leu-Glu-Thr-Ser-Leu	85%
Ac-Leu-Phe-Thr-Ser-Leu	86%
Ac-Lle-Asp-Thr-Ser-Leu	79%
Ac-MeLeu-Asp-Thr-Ser-Leu	65%

Substance	crude HPLC purity
Ac-[NMeL]LDTSL	50%
Bipa-Leu-Asp-Thr-Ser-Leu	80%
Cpc-Asp-Thr-Ser-Leu	73%
Dpa-Leu-Asp-Thr-Ser-Leu	87%
Dphb-Leu-Asp-Thr-Ser-Leu	87%
Flc-Leu-Asp-Thr-Ser-Leu	71%
Hbz-Leu-Asp-Thr-Ser-Leu	77%
Paa-Leu-Asp-Thr-Ser-Leu	81%
Pba-Asp-Thr-Ser-Leu	85%
Pba-Leu-Ala-Thr-Ser-Leu	84%
Pba-Leu-Tyr-Thr-Ser-Leu	95%
Pba-Pro-Leu-Asp-Thr-Ser-Leu	77%
Pca-Leu-Asp-Thr-Ser-Leu	80%
Pha-Leu-Asp-Thr-Ser-Leu	86%
[NMeL]LDTSL	86%

Same assay, conditions: whole synthesis, scale of the general procedure 50 mg or 100 mg resin (0.5 mmol/g), run 1

Substance	crude HPLC purity
Ac-Leu-Asp-Thr-Ser-Leu	75%
Ac-Leu-Asp-Thr-Ser-Leu [0104-1A]	47%
Ac-Leu-Asp-Thr-Ser-Leu [00389-1A]	61%
Ac-RGLDTS	32,34%
Ac-RGLDTSL	34,41%
Npa-Leu-Asp-Thr-Ser-Leu	38,48%
